# Assay results as given in patent publication US20220348650A1.
# Sequences of proteins named here, by UniProt entry; tags and fusion partners are left off. A change or cut given only in a name is not applied to a line headed by its entry.
# UniProt Q495A1: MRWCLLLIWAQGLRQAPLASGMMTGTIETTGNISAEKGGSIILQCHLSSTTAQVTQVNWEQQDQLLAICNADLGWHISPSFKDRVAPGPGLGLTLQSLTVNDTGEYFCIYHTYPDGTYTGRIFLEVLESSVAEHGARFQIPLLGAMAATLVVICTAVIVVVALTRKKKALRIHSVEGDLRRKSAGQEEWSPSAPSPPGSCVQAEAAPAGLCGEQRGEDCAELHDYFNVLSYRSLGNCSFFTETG
# These are yes or no findings as the source states them, for the method shown. Binding calls can cover weak binding; strength is not graded here.
# B1: h10D8OF (antibody, human IgG1, kappa, V domains shown)
# VH: QVQLVESGGGVVQPGRSLRLDCKASGFTFSSYGMSWVRQAPGKGLELVATINSNGGSTYYPDSVKGRFTISRDNSKNTLFLQMNSLRAEDTAVYYCARLGTGTLGFAYWGQGTLVTVSS
# VL: EIVMTQSPATLSLSPGERATLSCKASQDVKTAVSWYQQKPGQAPRLLIYWASTRATGIPARFSGSGSGTDYTLTISSLEPEDFAVYYCQQHYSTPWTFGQGTKVEIKR
# Molecular target: hTIGIT on the surface of T cells of B-hPD-1/hTIGIT double humanized mice (human extracellular region in the mouse genome (C57BL/6)) (UniProt Q495A1)
# Experiment: flow cytometry on spleen T cells, anti-human Fc FITC
binder,measurement,value
B1,binding,binds
